From US20200155661A1 (LENTIGEN TECHNOLOGY, published 2020)
Results are given in words; binding and its absence hold for the method and conditions named. Some results given as binding are weak or reduced against the parent protein; the word gives no strength.

The chains behind the UniProt entries cited, without tags or fusion partners. Residues count along the entry.
UniProt P20273, residues 20-687: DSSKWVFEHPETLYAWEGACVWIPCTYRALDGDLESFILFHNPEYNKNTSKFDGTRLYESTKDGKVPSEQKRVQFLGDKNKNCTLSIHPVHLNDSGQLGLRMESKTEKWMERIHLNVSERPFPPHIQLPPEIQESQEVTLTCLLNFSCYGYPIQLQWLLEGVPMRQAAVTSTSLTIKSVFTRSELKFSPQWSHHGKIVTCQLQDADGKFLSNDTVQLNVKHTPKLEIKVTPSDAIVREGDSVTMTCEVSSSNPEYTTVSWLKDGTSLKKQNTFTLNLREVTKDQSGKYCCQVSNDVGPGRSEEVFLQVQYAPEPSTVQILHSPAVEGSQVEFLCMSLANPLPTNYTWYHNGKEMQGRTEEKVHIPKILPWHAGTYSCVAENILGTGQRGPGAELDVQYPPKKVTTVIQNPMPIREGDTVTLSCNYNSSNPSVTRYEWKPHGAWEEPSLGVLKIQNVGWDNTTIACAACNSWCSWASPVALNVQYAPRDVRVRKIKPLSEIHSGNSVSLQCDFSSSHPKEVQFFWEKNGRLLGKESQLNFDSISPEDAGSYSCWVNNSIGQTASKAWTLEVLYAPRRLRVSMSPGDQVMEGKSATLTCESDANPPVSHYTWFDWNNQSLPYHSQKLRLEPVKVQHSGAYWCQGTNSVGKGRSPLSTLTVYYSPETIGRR

B1: CD22-specific binder (scFv1) 16P (scFv)
scFv: QVQLQQSGPGLVKPSQTLSLTCAISGDSVSSNSAAWNWIRQSPSRGLEWLGRTYYRSKWYNDYAVSVKSRITINPDTSKNQFSLQLNSVTPEDTAVYYCAQEVQPHDAFDIWGQGTMVTVSSGGGGSGGGGSGGGGSDIQMTQSPSSVSASVGDKVTITCRASQDVSGWLAWYQQKPGLAPQLLIFGASTLQGEVPSRFSGSGSGTDFTLTISSLQPEDFATYYCQQAKNFPYTFGQGTKLEIKR
notes: also called founder clone
B2: CD22-specific binder (scFv18) 16P15 (scFv)
scFv: QVQLQQSGPGLVKPSQTLSLTCAISGDSVSSNSAAWNWIRQSPSRGLEWLGRTYYRSKWYNDYAVSVKSRITINPDTSKNQFSLQLNSVTPEDTAVYYCAQEVEPHDALDIWGQGTMVTVSSGGGGSGGGGSGGGGSDIQMTQSPSSVSASVGDKVTITCRASQDVSGWLAWYQQKPGLAPQLLIFGASTLQGEVPSRFSGSGSGTDFTLTISSLQPEDFATYYCQQAKYFPYTFGQGTKLEIK
B3: CD22-specific binder (scFv6) 16P3 (scFv)
scFv: QIQLQQSGPGLVKPSQTLSLTCAISGDSVSSNSAAWNWIRQSPSRGLEWLGRTYYRSKWYNDYAVSVKSRITINPDTSKNQFSLQLNSVTPEDTAVYYCAQEVQPDDALDIWGQGTMVTVSSGGGGSGGGGSGGGGSDIQMTQSPSSVSASVGDKVTITCRASQDVSGWLAWYQQKPGLAPQLLISGASTLQGEVPSRFSGSGSGTDFTLTISSLQPEDFATYYCQQAKNFPYTFGQGTKLEIK
B4: CD22-specific binder (scFv9) 16P2 (scFv)
scFv: QVQLQQSGPGLVKPSQTLSLTCAISGDSVSSNSAAWNWIRQSPSRGLEWLGRTYYRSKWYNDYAVSVKSRITINPDTFKNQFSLQLNSVTPEDTAVYYCAQEVEPHDALDIWGQGTMVTVSSGGGGSGGGGSGGGGSDIKMTQSPSSVSASVGDKVTITCRASQDVSGWLAWYQQKPGLAPQLLIFGASTLQGEVPSRFSGSGSGTDFTLTISSLQPEDFATYYCQQAKYFPYTFGQGTKLEIK
B5: CD22-specific binder (scFv10) 16P6 (scFv)
scFv: QVQLQQSGPGLVKPSQTLSLTCAISGDSVSSNSAAWNWIRQSPSRGLEWLGRTYYRSKWYNDYAVSVKSRITINPDTSKNQFSLQLNSVTPEDTAVYYCAQEVQPDDAFDIWGQGTMITVSSGGGGSGGGGSGGGGSDIQMTQSPSSVSASVGDKVTITCRASQDVSGWLAWYQQKPGLAPQLLISGASTLQGGVPSRFSGSGSGTDFTLTISSLQPEDFATYYCQQAKNFPYTFGQGTKLEIK
B6: CD22-specific binder (scFv11) 16P10 (scFv)
scFv: QVQLQQSGPGLVKPSQTLSLTCAISGDSVSSNSAAWNWIRQSPSRGLEWLGRTYYRSKWYNDYAVSVKSRITINPDTSKNQFSLQLNSVTPEDTAVYYCAQEVEPQDAFDIWGQGTMVTVSSGGGGSGGGGSGGGGSDIQMTQSPSSVSASVGDKVTITCRASQDVSGWLAWYQQKPGLAPQLLIFGASTLQGEVPSRFSGSGSGTDFTLTISSLQPEDFATYYCQQAKYFPYTFGPGTKLEIK
B7: CD22-specific binder (scFv12) 16P17 (scFv)
scFv: QVQLQQSGPGLVKHSQTLSLTCAISGDSVSSNSAAWNWIRQSPSRGLEWLGRTYYRSKWYNDYAVSVKSRITINPDTSKNQFSLQLNSVTPEDTAVYYCAQEVEPHDAFDIWGQGTMVTVSSGGGGSGGGGSGGGGSDIQMTQSPSSVYASVGDKVTITCRASQDVSGWLAWYQQKPGLAPQLLISGASTLQGEVPSRFSGSGSGTDFTLTISSLQPEDFATYYCQQAKYFPYTFGQGTKLEIK
B8: CD22-specific binder (scFv13) 16P20v2 (scFv)
scFv: QVQLQQSGPGLVKPSQTLSLTCAISGDSVSSNSAAWNWIRQSPSRGLEWLGRTYYRSKWYNDYAVSVKSRITINPDTSKNQFSLQLNSVTPEDTAVYYCAQEVQPDDAFDIWGQGTMVTVSSGGGGSGGGGSGGGGSDIQMTQSPSSVSASVGDKVTITCRASQDVSGWLAWYQQKPGLAPQLLISGASTLQGEVPSRFSGSGSGTDFTLTISSLQPEDFATYYCQQAKNFPYTFGQGTKLEIK
B9: CD22-specific binder (scFv14) 16P1 (scFv)
scFv: QVQLQQSGPGLVKPSQTLSLTCDISGDSVSSNSAAWNWIRQSPSRGLEWLGRTYYRSKWYNDYAVSVKSRITINPDTSKNQFSLQLNSVTPEDTAVYYCAQEIEPHDAFDIWDQGTMVTVSSGGGGSGGGGSGGGGSVIQMTQSPSSVSASVGDKVTITCRASQDVSGWLAWYQQKPGLAPQLLISGASSLQGGVPSRFSGSGSGTDFTLTISSLQPEDFATYYCQQAKYFPYTFGQGTKLEIK
B10: CD22-specific binder (scFv15) 16P3v2 (scFv)
scFv: QVQLQQSGPGLVKHSQTLSLACAISGDSVSSNSAAWNWIRQSPSRGLEWLGRTYYRSKWYNDYAVSVKSRITINPDTSKNQFSLQLNSVTPEDTAVYYCAQEVQPQDALDIWGQGTMVTVSSGGGGSGGGGSGGGGSDIQMTQSPSFVSASVGDKVIITCRASQDVSGWLAWYQQKPGLAPQLLISGASTLQGEVPSRFSGSGSGTDFTLTISSLQPEDFATYYCQQAKYFPYTFGQGTKLEIK
B11: CD22-specific binder (scFv16) 16P8 (scFv)
scFv: QVQLQQSGPGLVKPSQTLSLTCAISGDSVSSNSAAWNWIRQSPSRGLEWLGRTYYRSKWYTDYAVSVKNRITINPDTSKNQFSLQLNSVTPEDTAVYYCAQEVEPQDAFDIWGQGTMVTVSSGGGGSGGGGSGGGGSDIQMTQSPSSVSASVGDKVTITCRASQDVSGWLAWYQQKPGLAPQLLIFGASTLQGEVPSRFSGSGSGTDFTLTISSLQPEDFATYYCQQAKYFPYTFGRGTKLEIK
B12: CD22-specific binder (scFv17) 16P13 (scFv)
scFv: QVQLQQSGPGLVKPSQTLSLTCAISGNSVSSNSAAWNWIRQSPSRGLEWLGRTYYRSKWYNDYAVSVKSRITINPDTSKNQFSLQLNSVTPEDTAVYYCAQEVEPQDAFDIWGQGTMVTVSSGGGGSGGGGSGGGGSDIQMTQSPSSVSASVGDKVTITCRASQDVSGWLAWYQQKPGLAPQLLIFGASTLQGEVPSRFSGGGSGTDFTLTISSLQPEDFATYYCQQAKYFPYTFGQGTKLEIK
B13: CD22-specific binder (scFv8) 16P20 (scFv)
scFv: QVQLQQSGPGLVKPSQTLSLTCAISGDSVSSNSAAWNWIRQSPSRGLEWLGRTYYRSKWYNDYAVSVKSRITINPDTSKNQFSLQLNSVTPEDTAVYYCAQEVEPHDALDIWGQGTMVTVSSGGGGSGGGGSGGGGSDIQMTQSPSSVSASVGDKVTITCRASQDVSGWLAWYQQKPGLAPQLLIFGASTLQGEVPSRFSGSGSGTDFTLTISSLQPEDFATYYCQQAKYFPYTFGQGTKLEIK

These binders were tested against recombinant human CD22 (labeled CD22 used in flow cytometry of yeast) (human) (UniProt P20273) (assay: flow cytometry analysis of yeast-displayed ScFv).

binding, binds:
B1, B2, B3, B4, B5, B6, B7, B8, B9, B10, B11, B12, B13
